Experimental data from PMC11024185.

Columns and labels:
[1] = biological target: T1, Ssf1-3xFLAG-3C-2xProteinA (S. cerevisiae) (UniProt P38789); assay: affinity purification with mass spectrometry; split-tag purification of pre-60S particles from steady state DBP10 yeast: IgG Sepharose on Ssf1-2xProteinA, 3C cleavage, then Strep-Tactin on 2xStrep-Dbp10, desthiobiotin elution; buffers with 50 µM ADP-BeF3; Coomassie-stained 4-20% SDS-PAGE, bands named by molecular weight, ambiguous bands by mass spectrometry
T1 sequence: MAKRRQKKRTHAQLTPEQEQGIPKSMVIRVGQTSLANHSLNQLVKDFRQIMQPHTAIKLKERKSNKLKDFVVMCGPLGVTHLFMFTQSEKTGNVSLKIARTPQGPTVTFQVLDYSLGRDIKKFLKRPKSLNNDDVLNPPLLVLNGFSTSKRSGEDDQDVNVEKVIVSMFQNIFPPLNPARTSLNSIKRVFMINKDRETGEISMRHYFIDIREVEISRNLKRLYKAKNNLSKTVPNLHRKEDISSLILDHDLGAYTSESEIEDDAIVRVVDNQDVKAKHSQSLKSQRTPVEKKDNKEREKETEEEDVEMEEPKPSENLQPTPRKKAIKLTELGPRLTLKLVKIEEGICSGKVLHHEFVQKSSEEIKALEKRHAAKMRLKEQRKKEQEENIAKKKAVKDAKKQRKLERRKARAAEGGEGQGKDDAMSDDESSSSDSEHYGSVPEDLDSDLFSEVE

[2] = biological target: T1, Ssf1-3xFLAG-3C-2xProteinA (S. cerevisiae); assay: affinity purification with mass spectrometry; split-tag purification of pre-60S particles from yeast overexpressing dbp10 R522V (β-estradiol, 1 h): IgG Sepharose on Ssf1-2xProteinA, 3C cleavage, then Strep-Tactin on Dbp10 R522V, bdNEDD8 protease elution; 50 mM Bis-Tris-Propane pH 8.0, 125 mM NaCl, 25 mM KCl, 10 mM MgCl2; Coomassie-stained 4-20% SDS-PAGE, bands named by molecular weight, ambiguous bands by mass spectrometry
[3] = biological target: T2, Dbp10 R522V (sfGFP-3xSTREP-bdNEDD8-MYC-dbp10 R522V) (S. cerevisiae) (UniProt Q12389); assay: as above
T2 sequence: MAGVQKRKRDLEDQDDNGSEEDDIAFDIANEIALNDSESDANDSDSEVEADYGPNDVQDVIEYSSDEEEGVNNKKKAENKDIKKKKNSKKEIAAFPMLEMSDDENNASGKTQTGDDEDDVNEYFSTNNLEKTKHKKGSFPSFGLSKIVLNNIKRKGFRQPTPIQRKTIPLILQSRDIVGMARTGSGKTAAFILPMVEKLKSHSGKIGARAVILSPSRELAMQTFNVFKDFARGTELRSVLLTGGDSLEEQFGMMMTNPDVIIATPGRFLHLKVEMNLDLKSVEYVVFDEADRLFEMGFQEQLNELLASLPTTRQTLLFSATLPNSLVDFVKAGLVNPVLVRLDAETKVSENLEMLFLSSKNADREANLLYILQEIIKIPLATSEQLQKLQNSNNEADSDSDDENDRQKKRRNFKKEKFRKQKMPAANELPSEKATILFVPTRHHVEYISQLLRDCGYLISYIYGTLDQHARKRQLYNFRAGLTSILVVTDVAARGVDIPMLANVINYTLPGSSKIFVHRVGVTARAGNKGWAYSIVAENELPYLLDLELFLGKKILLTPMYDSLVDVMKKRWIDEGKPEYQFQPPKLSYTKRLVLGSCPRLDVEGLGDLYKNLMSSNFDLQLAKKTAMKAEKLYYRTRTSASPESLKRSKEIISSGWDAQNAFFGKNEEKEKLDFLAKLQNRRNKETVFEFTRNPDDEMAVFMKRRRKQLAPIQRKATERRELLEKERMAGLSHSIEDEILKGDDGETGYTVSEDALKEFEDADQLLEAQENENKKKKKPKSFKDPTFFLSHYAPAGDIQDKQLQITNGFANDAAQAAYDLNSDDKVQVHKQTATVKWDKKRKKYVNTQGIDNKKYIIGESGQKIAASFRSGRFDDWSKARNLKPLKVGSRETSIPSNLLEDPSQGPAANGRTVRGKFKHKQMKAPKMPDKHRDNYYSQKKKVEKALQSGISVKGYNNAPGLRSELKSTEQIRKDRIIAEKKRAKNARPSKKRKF

B1: Drs1 (enzyme, UniProt P32892 1-752)
chain: MVVGTKKYSNLDFVPTISDSEDDVPILDSSDDEKVEAKKTTKKRKGKNNKKKVSEGDNLDEDVHEDLDAGFKFDLDADDTTSNFQGWNFLAEGESNKDDAEAFVKKDVDLDKIIRRKGGLVKMAHIDSKQEEETEKEKVEKENDSDDEELAMDGFGMGAPMNNGDENQSEEEEEEEEKEEEEEEEEEQEEMTLEKGGKDDEIDEEDDSEEAKADFYAPETEGDEAKKQMYENFNSLSLSRPVLKGLASLGYVKPSPIQSATIPIALLGKDIIAGAVTGSGKTAAFMIPIIERLLYKPAKIASTRVIVLLPTRELAIQVADVGKQIARFVSGITFGLAVGGLNLRQQEQMLKSRPDIVIATPGRFIDHIRNSASFNVDSVEILVMDEADRMLEEGFQDELNEIMGLLPSNRQNLLFSATMNSKIKSLVSLSLKKPVRIMIDPPKKAATKLTQEFVRIRKRDHLKPALLFNLIRKLDPTGQKRIVVFVARKETAHRLRIIMGLLGMSVGELHGSLTQEQRLDSVNKFKNLEVPVLICTDLASRGLDIPKIEVVINYDMPKSYEIYLHRVGRTARAGREGRSVTFVGESSQDRSIVRAAIKSVEENKSLTQGKALGRNVDWVQIEETNKLVESMNDTIEDILVEEKEEKEILRAEMQLRKGENMLKHKKEIQARPRRTWFQSESDKKNSKVLGALSRNKKVTNSKKRKREEAKADGNGARSYRKTKTDRIADQERTFKKQKSTNSNKKKGFKSRR
binding [1]: binds | binding [2]: binds

B2: Nsa1 ∆417-438 (protein, UniProt P53136)
chain: MRLLVSCVDSGSIKEVLCNIGTDTSVQSALQPFHVAPHLAEGLKAYVDRMWVISEDEAILARNSGVVELVKISKHLKENEALQVDPKGESKNEKSLSDDLPKFDISEFEITSSVSDLFDDAKLESLSSKSVKRTKLVDGFVTLCPIKKDSSNNTFVAATKSGLLHIIKKGEDKKLIKLASLGLKAPVEFLQLYDLEDTDTDKYIFAYGGEENLIKLVEIDSSFQSLKQIWEAKNVKNDRLDMRVPVWPMALRFLEPSPGKTEKGKLNYQFAAITRWSHLTKYSTQHGRKPFAQIDLLPNREPLSQMEVFDAKGENVVSSLGNFQSETFNELNVITTDYKKNVFKFDGNGRMLGKVGRDDITGSSTYIHVHDGKYLLQGGLDRYVRIFDIKTNKMLVKVYVGSRINFIVMLDDVEIEEDADELWNKLEGKVAASKASKKSKI
binding [3]: binds | binding [2]: binds

These are yes or no findings as the source states them, for the method shown. In cells and extracts the contact can be indirect. A yes stands for co-enrichment or nearness to the bait. Other partners may have been found. Where a sequence is shown, tags or fusion partners need not be part of it.
